Some of the results follow.

By UniProt entry, the sequences of proteins in these tests, tags left out.
UniProt Q0JBA9, entry or part of it: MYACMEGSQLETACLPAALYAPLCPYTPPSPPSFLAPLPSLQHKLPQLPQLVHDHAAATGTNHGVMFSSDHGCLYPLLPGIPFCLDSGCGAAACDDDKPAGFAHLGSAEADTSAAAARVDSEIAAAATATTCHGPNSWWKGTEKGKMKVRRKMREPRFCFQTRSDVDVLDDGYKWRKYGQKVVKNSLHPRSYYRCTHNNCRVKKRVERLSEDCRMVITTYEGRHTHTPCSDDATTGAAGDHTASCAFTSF

The test concerns the target OsWRKY34 (Oryza sativa, UniProt Q0JBA9 1-250). Nature of the test: protein-binding microarray (RPBM); PBS, 2% BSA, 51.3 ng/ul salmon testes DNA, 50 uM zinc acetate, 200 nM TF, 25 C, 1 h; high values mean tight binding. To be noted: protein: recombinant; tags: N-terminal polyhistidine and DsRed monomer fusion (pET32a); label: CyDye5-dUTP incorporated in the synthesized complementary strand; 3' TTTTT single-stranded linker to array surface; dsDNA, one strand shown. The procedure, abridged:
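Transcription factors were each fused at the N-terminus to a polyhistidine tag plus DsRed and expressed in E. coli BL21-CodonPlus before Ni–NTA purification. Binding to a double-stranded custom Agilent array was carried out with 200 nM protein at 25 °C for 1 h in PBS, 2% BSA, salmon testes DNA and 50 µM zinc acetate. The binding signal is per-feature fluorescence intensity, in arbitrary units, on an Axon 4000B scanner.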
With “TTGTTCCTCCTGTCCTGTCCATAGCTCATGCAACACAAGCCGGAGTCACCTAGTGCAG”, the binding signal was 9210 fluorescence intensity (a.u.). For “CCTTTTTCTGTCGGTTAATTCGGCGACGTCTGATCCGCCACGGAGTCACCTAGTGCAG”, the binding signal was 8970 fluorescence intensity (a.u.). With “CGCCGCCATTTCCGCCTCTTCTTCTCTTAAACAAAAAGCCCGGAGTCACCTAGTGCAG”, the binding signal was 10200 fluorescence intensity (a.u.). The result for “TTCGAATCCCTTCGCTGATGCATTGTTTTTTCTATTTTGCCGGAGTCACCTAGTGCAG” reads 10000 fluorescence intensity (a.u.); that for “CATAGCCACACAATCATACTAGCATTATCTCCTCATCATTCGGAGTCACCTAGTGCAG”, 9140 fluorescence intensity (a.u.). Turning to “CCTCTCGGGCGCCTCTCCTCTCCATCATTCCTCCCACTGCCGGAGTCACCTAGTGCAG”, the binding signal was 9880 fluorescence intensity (a.u.). The result for “ACGTTTTTCCTATTCCTATGATTTTACATTTCTTTGTTCCCGGAGTCACCTAGTGCAG” reads 8610 fluorescence intensity (a.u.); that for “CTCGGCCACCGCCGGGTTCGCCTCCAGTGCTCGCCGCCTCCGGAGTCACCTAGTGCAG”, 9920 fluorescence intensity (a.u.); that for “ATATTCACAGAGTCCATGGTGTTTTGAATCTCTTCTTCTTCGGAGTCACCTAGTGCAG”, 8200 fluorescence intensity (a.u.). To “CTAGTCTTCCACTTTTCCGCAGCCAGTAAACGCGCCCGCGCGGAGTCACCTAGTGCAG” belongs 8180 fluorescence intensity (a.u.). To “GCTTTTTTGACCGGTCGCCTCCGTCGATATTTTCCCGCGCCGGAGTCACCTAGTGCAG” belongs 13300 fluorescence intensity (a.u.); to “CTTTTTTTTGGTTTGCCGTGTGGTGGGTTTCGGGTCCGCGCGGAGTCACCTAGTGCAG”, 14500 fluorescence intensity (a.u.); to “AGTCATGATGGCCAATGGTATTTCGTGCATTTCTTACATTCGGAGTCACCTAGTGCAG”, 9710 fluorescence intensity (a.u.). For the sequence “GCGTTTTACAAGTTTATGTACTAGATTACACCCACCTGATCGGAGTCACCTAGTGCAG”, the binding signal is 10000 fluorescence intensity (a.u.). The result for “GTATGGTACAGCACATTTCTCTGTTCAAGTGTTCATTATGCGGAGTCACCTAGTGCAG” reads 8610 fluorescence intensity (a.u.); that for “AGTATCATATTGTAGTTCTTTATCTGACTTGCTTCGATTCCGGAGTCACCTAGTGCAG”, 8390 fluorescence intensity (a.u.); that for “GTGGTTATTTCTGGTGCCTTATTATGGAATCTCTTCCGTTCGGAGTCACCTAGTGCAG”, 9220 fluorescence intensity (a.u.). As to “TATTTATTTATTTTATTTTTGACTTACTTTATTATTCAATCGGAGTCACCTAGTGCAG”, the binding signal was 8130 fluorescence intensity (a.u.). As to “TGGGTGGTAAATGGGTTTCTAGCTGGTATAAGTACTACACCGGAGTCACCTAGTGCAG”, the binding signal is 9670 fluorescence intensity (a.u.). Consider “GCTAGCTTGGGTTTCTGCTGTGCTGTCTAGTTCCTTTCCTCGGAGTCACCTAGTGCAG”, for which the binding signal was 8320 fluorescence intensity (a.u.). For “TGCGTGTGTGGGTGTGTGGTGGAGTGAGTAAAAAGTGAAGCGGAGTCACCTAGTGCAG”, the binding signal was 8150 fluorescence intensity (a.u.). The result for “CATCGACAATGTTGGTTACCGTCACCCACTTTCTTGCTGCCGGAGTCACCTAGTGCAG” reads 8820 fluorescence intensity (a.u.); that for “CACGCATCCGTCTCCTCCTCGCGGAATAATAACCTTTTTTCGGAGTCACCTAGTGCAG”, 8920 fluorescence intensity (a.u.).

(Values after paper PMC7819943, “Rice protein-binding microarrays: a tool to detect cis-acting elements near promoter regions in rice”.)
